For at least one compound, name, drawing or mass did not settle the structure.
Tested on: PhCMV*-1 and PETR driven SecCell expression
Assay: Transient expression of SecCell under antibiotic-responsive promoters in mammalian cells
Format: cell-based, human, hamster
Conditions: HEK293-T, HeLa, HT-1080, CHO-K1, BHK-21, transient transfection
From the text: (B) Transient expression of cellulase in HEK293-T, HeLa, HT-1080, BHK-21 and CHO-K1 cells. Cellulase was either driven by a constitutive (PhCMV) or antibiotic-responsive promoters (PhCMV*-1 and PETR).
The Bacillus subtilis endo (1-4)-beta-glucanase was PCR-amplified from genomic DNA and fused to a strong mammalian secretion signal sequence derived from the murine Igk-chain V-12-C region. The secreted cellulase (SecCell) was cloned downstream of a constitutive promoter (PhCMV) as well as two different inducible promoters which enabled doxycycline-(PhCMV*-1) and erythromycin-(PETR) adjustable transgene expression (FIG. 1A).
Cellulase was quantified using EnzCheck® fluorescent substrate (Molecular Probes, Eugene, Oreg., USA) according to the manufacturer's protocol: 20 μl of cell culture supernatant was centrifuged at 16,000×g for one minute to remove cell debris and 15 μl of appropriate dilutions in PBS (Invitrogen, cat. no. 21600-069) were transferred to a 384-well plate containing 15 μl sodium acetate buffer (200 mM sodium acetate, pH 5.5) per well supplemented with 3 μl substrate solution. Plates were incubated at 37° C. for 30 minutes and fluorescence intensity was measured subsequently at 340 nm (excitation wavelength) and 450 nm (emission wavelength) in a Genios Pro multiwell plate reader (Tecan A G, Maennedorf, Switzerland). […]

Question: For `C[C@H]1c2cccc(O)c2C(=O)C2=C(O)[C@]3(O)C(=O)C(C(N)=O)=C(O)[C@@H](N(C)C)[C@@H]3[C@@H](O)[C@@H]21` [DOX, doxycycline], which “SecCell production (cellulase activity in the culture supernatants)” value is on record?
Answer: The value was “repressed”.

Reference: US8506950B2, “Degradable microcapsules” (ETH Zurich, priority 2008, dated 2013)
